{
  "source": "patent US8327467B2",
  "about": "“Anthranilic acid derivative or salt thereof” (Toyama Chemical Co., Ltd., priority 2005, dated 2012)",
  "tested_on": "MMP-13",
  "assay": "MMP-13 production inhibition test",
  "format": "cell-based",
  "settings": "30 μmol/L; human cartilage derived cell line SW1353, IL-1β 10 ng/mL, 16 hours after stimulation, MMP-13 in culture supernatant by ELISA; read-out: Inhibition rate (%) at 30 μmol/L",
  "method": "MMP-13 Production Inhibition Test\n6.8×10^3 human cartilage derived cell line SW1353 cells were suspended in 100 μL of Dulbecco modified Eagle's medium supplemented with 10% fetal calf serum, plated on 96-well plates and cultured for 3 days. After the culture medium was changed to Dulbecco modified Eagle's medium containing 0.2% lactalbumin hydrolysate and the cells were cultured for 6 hours, test compounds were added and then IL-1β was added to obtain the final concentration of 10 ng/mL 1 hour later. 16 hours after the stimulation, supernatant was collected and the amount of MMP-13 in the culture supernatant was determined with an ELISA kit (Amersham). The inhibition rate was calculated from the amount of MMP-13 in the presence of a test compound assuming that the amount of MMP-13 was 100% in the absence of the test compound.",
  "data": [
    {"smiles": "CN(C)c1ccc(-c2ccc(C(=O)O)c(Nc3ccc(F)cc3)c2)cc1", "note": "[Example 237, 4-(4-(dimethylamino)phenyl)-2-(4-fluoroanilino)benzoic acid]", "values": [
      {"measurement": "inhibition at 30 µM", "result": 97, "unit": "%"}
    ]}
  ]
}
